The nature of the experiment: qHTS Assay to Find Inhibitors of Chronic Active B-Cell Receptor Signaling. The settings on record: ABC-DLBCL IkBa-CBG/CBR reporter, luminescence ratio (green luciferase fused to IkBa over red control in TMD8 lymphoma cells), 4 h. A digest of the protocol:
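Compounds up to 46 uM were incubated four hours with TMD8 cells whose green CBG68 luciferase is fused to IkappaBalpha; red CBR luminescence normalised the signal, and concentration-effect curves were fitted to fusion, red and ratio data.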

[1] abbreviates: measured here: CBR red luminescence, cell number.
The mark [2] stands for this setting: measured here: IkBa-CBG green luminescence.

Some of the results follow. Shown are side measurements of this screen, not its main read-out; they come without a call. The list favours compounds with an active or inconclusive main result. Potencies come from curve fits of mixed quality, noted in brackets.

One may read the AC50 as the concentration giving half of the maximal activity seen.

`CCCN1C(=O)/C(=C2/C=Cc3ccccc3N2CC)SC1=S`: the AC50 under setting [1] is 17.8 µM [rising, partial curve, poor fit].

Turning to `CCN(c1ccccc1)S(=O)(=O)c1ccc(C(=O)NNC(=O)c2ccccc2F)cc1`, the concentration at half-maximal activity (AC50) is 29.1 µM [rising, single point] under setting [1] and 25.9 µM [falling, partial curve, poor fit] under setting [2].

For the compound `CC1(C)CC(=O)c2sc(NC(=O)C3CC3)nc2C1`, the AC50 under setting [1] is 25.9 µM [falling, single point].

Consider `O=C(/C=C/c1ccc(Cl)cc1Cl)Nc1cccc(S(=O)(=O)NC2=NCCCCC2)c1`, for which the AC50 under setting [1] was 20.6 µM [falling, single point].

Take `CC(C)Cc1cc(C(=O)Nc2ccc(F)cc2F)no1`: the AC50 under setting [1] was 9.2 µM [falling, partial curve].

Take `c1cc(-n2cnnn2)ccc1NC1=NCCC1`: the AC50 under setting [1] was 2.59 µM [falling, partial curve, poor fit].

`CCOC(=O)C(=Cc1cc(=O)c(OC)co1)C(=O)OCC`: the AC50 under setting [1] was 11.6 µM [falling, partial curve].

`CN(C(=S)NC(=O)CCCOc1ccc(Cl)cc1Cl)c1ccccc1`: the AC50 under setting [1] is 18.4 µM [rising, single point].

Consider `CC(C)(C)C(=O)Nc1cc(S(=O)(=O)Nc2ccc(Cl)cc2)ccc1Cl`, for which, under setting [1], the concentration at half-maximal activity (AC50) is 13 µM [falling, partial curve, poor fit].

For the compound `CC(=O)c1cccc(NC(=O)C=C(C)C)c1`, under setting [1], the AC50 was 16.4 µM [rising, partial curve, poor fit].

On to `COc1cccc(C(=O)CC(C#N)c2ccc(F)cc2)c1` (stereo not given), for which the half-maximal activity concentration (AC50) under setting [1] was 0.891 µM [rising, full curve].

In the case of `CCOc1c(Br)cc(/C=C2\C(=O)N(CCC#N)N=C2C)cc1OC`, the AC50 under setting [2] was 18.4 µM [falling, single point].

In the case of `CCOC(=O)N1CCN(c2ccc([N+](=O)[O-])cc2)CC1`, the AC50 under setting [1] was 20.6 µM [rising, partial curve, poor fit].

As for `CC(C)Oc1cccc(C(=O)NC(=S)Nc2cccc(NC(=O)c3ccccc3Cl)c2)c1`, under setting [1], the concentration at half-maximal activity (AC50) is 2.59 µM [falling, partial curve, poor fit].

As for `O=C(Nc1nccs1)c1ccc(N2CCOCC2)c([N+](=O)[O-])c1`, the half-maximal activity concentration (AC50) under setting [1] was 10 µM [falling, partial curve].

Take `CCCOc1ccc2[nH]c(C(=O)N/N=C/c3cc(OC)c(OC)c(OC)c3)cc2c1`: under setting [1], the AC50 is 22.4 µM [falling, partial curve, poor fit].

Take `COC(=O)C1=C(C)N(c2cc(C)cc(C)c2)/C(=C/c2ccc(O)cc2)C1=O`: under setting [1], the AC50 is 4.47 µM [falling, full curve, poor fit].

For the compound `O=C(CSc1nnc(-c2ccccc2O)o1)Oc1ccc(OCc2ccccc2)cc1`, the AC50 under setting [1] was 3.98 µM [rising, full curve, poor fit].

Regarding `O=C(CCCN1C(=O)c2ccccc2C1=O)Oc1ccc(F)cc1`, the AC50 under setting [2] was 0.461 µM [rising, partial curve, poor fit].

Take `Clc1ccc(CSc2nnc3c(n2)[nH]c2ccccc23)cc1`: under setting [1], the AC50 was 1 µM [rising, full curve, poor fit].

For the compound `N#Cc1cccc(NC(=O)COc2ccc(-n3ccnc3)cc2)c1`, the AC50 under setting [1] was 25.1 µM [falling, partial curve, poor fit].

On to `O=C(c1ccccc1Nc1ccc(SC(F)F)cc1)N1CCCCCC1`, for which the AC50 under setting [1] is 5.62 µM [falling, single point].

Turning to `CC(=O)CC(C)(C)S(=O)(=O)c1ccc(Oc2ccc(S(=O)(=O)C(C)(C)CC(C)=O)cc2)cc1`, the concentration at half-maximal activity (AC50) under setting [1] was 32.6 µM [rising, single point].

`O=C(COc1coc(CN2CCc3ccccc3C2)cc1=O)Nc1cccc(Cl)c1`: the concentration at half-maximal activity (AC50) under setting [1] is 29.1 µM [rising, single point].

With `CCOC(=O)c1ccc2nc(NC(=O)c3cccs3)sc2c1`, under setting [1], the AC50 was 0.82 µM [falling, full curve].

Regarding `CCOC(=O)C1=CC[C@@H](c2cc3ccc(OC)cc3n2C)N(S(=O)(=O)c2ccc(C)cc2)[C@H]1C(=O)OCC`, the AC50 under setting [1] is 16.4 µM [rising, partial curve, poor fit].

With `CSc1ccccc1NC(=O)C(=O)c1c[nH]c2ccccc12`, under setting [1], the AC50 was 8.91 µM [falling, partial curve, poor fit].

In the case of `NNc1nc2sc3c(c2c(=O)n1-c1ccccc1)CCCC3`, the AC50 under setting [1] was 7.94 µM [falling, partial curve].

For `Cn1ncc(C(N)=O)c1NC(=S)NC(=O)c1ccc(Br)o1`, the half-maximal activity concentration (AC50) under setting [1] is 6.31 µM [rising, single point].

Take `CCN(CC)CCN(C(=O)c1ccc2ncsc2c1)c1nc2cc3c(cc2s1)OCO3`: the AC50 under setting [1] was 11.2 µM [falling, partial curve].

For `O=C(Nc1sc2c(c1C(=O)O)CCCCC2)c1cccs1`, under setting [1], the AC50 is 8.91 µM [falling, partial curve].

As to `Cc1ccc(-c2nc(N/N=C/c3cccnc3)c3ccccc3n2)cc1`, the half-maximal activity concentration (AC50) under setting [1] was 4.61 µM [falling, partial curve].

Turning to `Nc1ccc2nc(Cc3ccccc3)[nH]c2c1`, the AC50 under setting [1] was 35.5 µM [falling, single point].

Turning to `CN(C(=S)NC(=O)C1(C)CC1(Cl)Cl)c1ccccc1` (stereo not given), the AC50 under setting [1] is 1.3 µM [falling, full curve].

Turning to `CN(CC(CC(=O)Nc1nncs1)c1ccccc1)S(=O)(=O)c1ccccc1` (stereo not given), under setting [1], the AC50 was 8.2 µM [falling, partial curve].

On to `CCCCCCC(=O)N/N=C1\CCCc2ccccc21`, for which the concentration at half-maximal activity (AC50) under setting [1] was 1.64 µM [rising, full curve, poor fit].

With `CSc1ccc(/C=N/NC(=O)c2cccc(O)c2)cc1`, under setting [1], the half-maximal activity concentration (AC50) was 2.82 µM [falling, partial curve, poor fit].

Consider `COc1ccc(C2(C)NC(=O)N(CC(=O)Nc3ccc4c(c3)OCO4)C2=O)cc1OC` (stereo not given), for which the concentration at half-maximal activity (AC50) under setting [1] was 35.5 µM [rising, single point].

In the case of `CCOc1cc(C(c2c(C)[nH][nH]c2=O)c2c(C)[nH][nH]c2=O)ccc1OS(=O)(=O)c1ccc(C)cc1`, the concentration at half-maximal activity (AC50) under setting [1] is 5.17 µM [rising, single point] and the AC50 under setting [2] was 6.51 µM [falling, partial curve, poor fit].

Consider `Cc1cc(C)n(-c2nc3ccccc3nc2Nc2ccc(CC(=O)O)cc2)n1`, for which the concentration at half-maximal activity (AC50) under setting [1] is 8.2 µM [falling, partial curve, poor fit].

Consider `COc1ccc(C(=O)Cn2c(C(=O)/C=C/c3ccccc3)nc3ccccc32)cc1`, for which the AC50 under setting [1] was 5.8 µM [falling, single point].

Consider `COc1ccc(C(=O)/C=C/Nc2ccccn2)c(OC)c1`, for which, under setting [1], the half-maximal activity concentration (AC50) is 3.16 µM [falling, full curve].

As for `O=c1[nH]c(SCc2cccc(Cl)c2)nc2[nH]ncc12`, under setting [1], the AC50 is 5.01 µM [rising, partial curve, poor fit].

Consider `COc1ccc(CNC(=O)c2ccc(Cn3nc(C)c([N+](=O)[O-])c3C)o2)cc1`, for which the AC50 under setting [1] is 2.82 µM [falling, partial curve, poor fit].

For `O=c1oc2ccccc2cc1-c1nc(-c2cccs2)no1`, the concentration at half-maximal activity (AC50) under setting [1] was 14.1 µM [falling, partial curve, poor fit].

Turning to `O=C(COS(=O)c1ccccc1)Nc1cc(Cl)ccc1N1CCOCC1` (stereo not given), the half-maximal activity concentration (AC50) under setting [1] is 22.4 µM [falling, single point].

On to `COc1cc(C(=O)NC(=S)Nc2ccc(Cl)cn2)cc(OC)c1OC`, for which, under setting [1], the half-maximal activity concentration (AC50) was 3.16 µM [rising, partial curve, poor fit].

As to `CS(=O)(=O)c1ccc(Cl)c(NC(=O)Nc2ccccc2)c1`, the AC50 under setting [1] was 35.5 µM [falling, single point].

Turning to `CCN(Cc1ccc(OC)c(COC)c1)CC1CCCN(CCc2cccc(F)c2)C1` (stereo not given), the half-maximal activity concentration (AC50) under setting [1] was 35.5 µM [falling, single point].

As to `COc1ccccc1OCCOc1ccccc1/C=N/n1cnnc1`, under setting [1], the AC50 was 23.1 µM [falling, partial curve, poor fit].

Turning to `Oc1[nH]c2ccccc2c1N=Nc1ccc(F)cc1`, under setting [1], the AC50 is 20.6 µM [falling, single point].

Consider `Cc1ccc2cc(C(c3nnnn3Cc3ccccc3)N3CCc4ccccc43)c(=O)[nH]c2c1` (stereo not given), for which the half-maximal activity concentration (AC50) under setting [1] was 0.461 µM [falling, partial curve, poor fit].

Consider `O=C(NCC(=O)N1CCCCC1)c1ccc2ccccc2c1`, for which the AC50 under setting [1] is 8.91 µM [falling, partial curve].

As for `CCS(=O)(=O)N1CCN(c2ccccc2F)CC1`, the AC50 under setting [1] is 8.2 µM [rising, partial curve, poor fit].

Take `Cc1cccc(NS(=O)(=O)c2cc(C(=O)OC(C)C(=O)NCc3ccc4c(c3)OCO4)ccc2C)c1` (stereo not given): the concentration at half-maximal activity (AC50) under setting [1] was 23.1 µM [falling, single point].

Turning to `CCc1ccc(-c2nc(CS(=O)CC(=O)NCCCN3CCOCC3)c(C)o2)cc1` (stereo not given), the AC50 under setting [1] was 14.1 µM [falling, partial curve, poor fit].

`O=C(NN1C(=O)c2ccccc2C1=O)c1ccccc1[N+](=O)[O-]`: the AC50 under setting [1] is 14.1 µM [falling, single point].

As to `CCOC(=O)c1c(/N=C/N(C)C)sc(/C=N/Nc2ccccc2)c1-c1ccccc1`, the AC50 under setting [1] is 10.3 µM [falling, partial curve].

With `COc1cc(OC)cc(Oc2ccc(S(=O)(=O)N3CCCCC3)cc2[N+](=O)[O-])c1`, under setting [1], the concentration at half-maximal activity (AC50) was 20 µM [falling, single point].

With `CC(=O)c1cc(-c2ccc(F)cc2)n(CCC(=O)Nc2nc3ccc(C)cc3s2)c1C`, under setting [1], the concentration at half-maximal activity (AC50) was 7.94 µM [rising, partial curve, poor fit].

As for `Cc1ccc(-c2cc(C(=O)N3CCN(c4ncccn4)CC3)c3cc(Br)ccc3n2)o1`, the AC50 under setting [1] was 11.2 µM [falling, partial curve].

As for `Cc1cc2cc(CNC(=O)Cc3cccs3)ccc2n1C`, the AC50 under setting [1] is 12.6 µM [falling, single point].

For `O=C(O)CCC(=O)Nc1ccccc1C(=O)NC1CCCCC1`, the concentration at half-maximal activity (AC50) under setting [1] is 29.1 µM [falling, single point].

These data come from PubChem BioAssay AID493014 (National Center for Advancing Translational Sciences (NCATS), 2011).
